Out of some 330,000 compounds screened, about 7,700 (2.3%) were called active. This list was built around the results that the source calls inconclusive (neither active nor inactive); the mix of calls is not that of the screen. Calls come from the whole dose curve; as a rule, active = well fitted inhibition curve with a large enough effect; inconclusive = small, poorly fitted or top-dose-only effect, or effect the other way; inactive = flat fitted curve, though single readings scatter. Potencies beside an inconclusive call are fits to weak or partial responses and may not hold up.
Experiment: qHTS screen for small molecules that inhibit ELG1-dependent DNA repair in human embryonic kidney (HEK293T) cells expressing luciferase-tagged ELG1; note: nearly all actives have a fitted effect of over 55% in size
Conditions: HEK293T ELG1-luciferase reporter, luminescence, 16 h, DNA damage induced by 5-fluorouridine; activity change, negative = inhibition: at 46.1 µM (top of the series)
Outline: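 Overnight (16 hr) co-exposure of 2,000 cells/well to 5-fluorouridine and compound at 37 °C preceded detection. Luciferase was quantified via ONE-Glo luminescence; loss of signal denotes inhibition.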
% is set by controls: 0 for no effect and ±100 for the full control effect; potency is the fitted concentration of half-maximal effect.

Structure (SMILES) | Potency | activity change, negative = inhibition
CCc1ccc(S(=O)(=O)/N=C2\C=C(Nc3ccc(O)cc3)C(=O)c3ccccc32)cc1 | active: 3.26 µM | –
Cc1ccc(C(=O)N/N=C\c2ccc([N+](=O)[O-])o2)cn1 | inconclusive: 29.1 µM [inhibitor, single point] | –
CC(C)CCNc1cc(=O)n(C)c(=O)n1C | inconclusive: 9.2 µM [activator, partial curve, poor fit] | –
COc1cc(/C=N/NC(=O)c2cc3c(ccc4ccccc43)o2)cc(OC)c1O | inconclusive: 14.6 µM [inhibitor, partial curve] | –
COc1ccc(OCCOC(=O)c2cccc(-n3cnnn3)c2)cc1 | inconclusive: 18.4 µM [activator, single point] | –
Cc1cc(C(=O)Nc2ccccc2Cl)c2ccccc2n1 | – | inactive: 1.73%
CS(=O)(=O)N(Cc1ccccc1)c1ccc(C(=O)Nc2ccc3c(c2)OCO3)cc1 | inconclusive: 20.6 µM [inhibitor, single point] | –
Cc1ccc(NC(=O)c2cc(F)c(F)cc2Cl)nc1 | inconclusive: 9.2 µM [activator, partial curve] | –
Fc1ccccc1/C=N/Nc1ncnc2ccccc12 | inconclusive: 2.91 µM [activator, full curve] | –
C(=N\NCc1ccccc1)/c1ccc2nccnc2c1 | inconclusive: 8.2 µM [activator, partial curve] | –
Cc1csc(NC(=O)c2nc(-c3ccccc3)n(-c3ccccc3)n2)n1 | active: 14.6 µM | –
COc1ccc(-c2c(C)nn3c(N4CCN(Cc5ccccc5)CC4)cc(C)nc23)cc1OC | active: 4.61 µM | –
O=C(CNC(=O)c1cccc(F)c1)OCC(=O)N1CCCCC1 | inconclusive: 23.1 µM [activator, partial curve] | –
CCOC(=O)C1=NN(c2ccc(C)cc2)C2(S1)SC(C(C)=O)=C(C)N2c1ccccc1 (stereo not given) | inconclusive: 20.6 µM [activator, single point] | –
Cc1ccc(C2(C)NC(=O)N(CC(=O)NCc3ccccc3Cl)C2=O)cc1 (stereo not given) | – | inactive: 0%
Cc1cccc(-c2cc(C(=O)Nc3c(C)n(C)n(-c4ccccc4)c3=O)c3ccccc3n2)c1 | inconclusive: 20.6 µM [inhibitor, single point] | –
CC(C)CNC(=O)NC(=O)COC(=O)c1cc([N+](=O)[O-])ccc1NCc1ccccc1Cl | inconclusive: 23.1 µM [activator, partial curve, poor fit] | –
O=C(NC(=S)NCCc1ccccc1)c1ccccc1F | inconclusive: 23.1 µM [activator, single point] | –
Cn1ncc([N+](=O)[O-])c1C(=O)Nc1ccn(Cc2ccccc2F)n1 | – | inactive: 2.85%
CC(C)n1c(C(F)(F)F)nc2cc(C(=O)N3CCCCC3)ccc21 | inconclusive: 29.1 µM [activator, single point] | –
NC(=S)N/N=C1/CCSc2ccc3ccccc3c21 | inconclusive: 18.3 µM [inhibitor, single point] | –
COCCn1c(SCC(=O)N2CCN(c3ccccc3)CC2)nc2c(c1=O)SC(C)C2 (stereo not given) | – | inactive: -4.99%
CCc1nnc(NC(=O)CSc2nnc3nc(C)cc(C)n23)s1 | inconclusive: 29.1 µM [activator, partial curve, poor fit] | –

Quoted at random: 2 entries already listed
Structure (SMILES) | Potency | activity change, negative = inhibition
Cn1ncc([N+](=O)[O-])c1C(=O)Nc1ccn(Cc2ccccc2F)n1 | – | inactive: 2.85%
CCOC(=O)C1=NN(c2ccc(C)cc2)C2(S1)SC(C(C)=O)=C(C)N2c1ccccc1 (stereo not given) | inconclusive: 20.6 µM [activator, single point] | –

Following part:

Structure (SMILES) | Potency | activity change, negative = inhibition
COCCN1CCN(C(=O)c2cc(COc3cc(C)ccc3C)on2)CC1 | inconclusive: 14.6 µM [activator, partial curve] | –
S=c1[nH]nc(COc2ccc(Cl)cc2)n1Cc1ccccc1 | – | inactive: -11.6%
Cc1ccc(-c2csc(NC(=O)CSC3=NCCS3)n2)cc1 | inconclusive: 20.6 µM [activator, single point] | –
COc1ccc2c(c1)Cc1sc(NC(=O)c3ccccc3)nc1-2 | inconclusive: 3.66 µM [activator, partial curve, poor fit] | –
Fc1ccccc1Nc1nc2ccccc2o1 | inconclusive: 3.26 µM [activator, full curve] | –
O=C(Nc1nc(-c2ccc(Cl)cc2Cl)cs1)C1CCCO1 (stereo not given) | inconclusive: 11.6 µM [activator, partial curve, poor fit] | –
COc1cc(CN2CCC(C(N)=O)CC2)ccc1OCc1ccccc1 | inconclusive: 18.3 µM [activator, partial curve] | –
CC(=O)Nc1cccc(Oc2cc(C#N)c(C#N)cc2N2CCCCCC2)c1 | inconclusive: 32.6 µM [inhibitor, partial curve, poor fit] | –
CCc1nnc(NC(=O)Cn2c(=O)oc3ccccc32)s1 | – | inactive: -3.78%
O=C(Oc1ccccc1O)c1cccc2ccccc12 | – | inactive: 8.9%
Cc1cc(/C=C(\C#N)C(=O)NCc2cccs2)c(C)n1-c1ccccc1F | inconclusive: 2.59 µM [activator, partial curve] | –
O=C(NCc1ccccc1)C(=O)NCC1CCCN1S(=O)(=O)c1cccs1 (stereo not given) | – | inactive: 0.543%
Cc1ccc(C)c(N2CCN(c3nnnn3-c3ccccc3)CC2)c1 | inconclusive: 32.6 µM [inhibitor, single point] | –
Cc1cccc(C(=O)NC2CCN(CC(=O)Nc3ccccc3Cl)CC2)c1 | – | inactive: -9.43%
CC(C)(C)OC(=O)CC[C@@H](C(=O)N1CCN(C(=O)OC(C)(C)C)CC1)n1cc(C(Cc2ccc(O)cc2)NC(=O)OC(C)(C)C)nn1 (stereo not given in full) | inconclusive: 14.6 µM [inhibitor, partial curve] | –
CN(C)c1ccc(C2/C(=C(/O)c3ccc(Br)cc3)C(=O)C(=O)N2C)cc1 (stereo not given) | – | inactive: 1.58%
CCOC(=O)c1ccc(NC(=S)Nc2cccc(C)n2)cc1 | – | inactive: 7.96%
C1=C(CCNc2nnnn2-c2ccccc2)CCCC1 | inconclusive: 10.3 µM [inhibitor, partial curve, poor fit] | –
COc1cccc(/C=N/n2cnc3cc(C)c(C)cc32)c1OC | inconclusive: 9.2 µM [activator, partial curve, poor fit] | –
CCC(C)C(=O)Nc1nc(C)c(-c2csc(Nc3ccccc3OC)n2)s1 (stereo not given) | inconclusive: 20.6 µM [inhibitor, single point] | –
FC(F)(F)c1cnc(N/N=C/c2ccncc2)c(Cl)c1 | – | inactive: 6.78%
O=C(Nc1ccc([N+](=O)[O-])cn1)C1CC2CCC1C2 (stereo not given) | inconclusive: 18.4 µM [activator, partial curve, poor fit] | –

Source: PubChem BioAssay AID504467 (National Center for Advancing Translational Sciences (NCATS), 2011)
